US10806737B2
The structures given here were assigned with low confidence; some may be wrong.

Chains of the proteins cited; added tags and fusions are not shown. A line that says so, or that is headed by a name, gives the form on record, which may keep a tag or linker.
UniProt P36888, with tags, fused parts or gaps with the stated changes limits assumed: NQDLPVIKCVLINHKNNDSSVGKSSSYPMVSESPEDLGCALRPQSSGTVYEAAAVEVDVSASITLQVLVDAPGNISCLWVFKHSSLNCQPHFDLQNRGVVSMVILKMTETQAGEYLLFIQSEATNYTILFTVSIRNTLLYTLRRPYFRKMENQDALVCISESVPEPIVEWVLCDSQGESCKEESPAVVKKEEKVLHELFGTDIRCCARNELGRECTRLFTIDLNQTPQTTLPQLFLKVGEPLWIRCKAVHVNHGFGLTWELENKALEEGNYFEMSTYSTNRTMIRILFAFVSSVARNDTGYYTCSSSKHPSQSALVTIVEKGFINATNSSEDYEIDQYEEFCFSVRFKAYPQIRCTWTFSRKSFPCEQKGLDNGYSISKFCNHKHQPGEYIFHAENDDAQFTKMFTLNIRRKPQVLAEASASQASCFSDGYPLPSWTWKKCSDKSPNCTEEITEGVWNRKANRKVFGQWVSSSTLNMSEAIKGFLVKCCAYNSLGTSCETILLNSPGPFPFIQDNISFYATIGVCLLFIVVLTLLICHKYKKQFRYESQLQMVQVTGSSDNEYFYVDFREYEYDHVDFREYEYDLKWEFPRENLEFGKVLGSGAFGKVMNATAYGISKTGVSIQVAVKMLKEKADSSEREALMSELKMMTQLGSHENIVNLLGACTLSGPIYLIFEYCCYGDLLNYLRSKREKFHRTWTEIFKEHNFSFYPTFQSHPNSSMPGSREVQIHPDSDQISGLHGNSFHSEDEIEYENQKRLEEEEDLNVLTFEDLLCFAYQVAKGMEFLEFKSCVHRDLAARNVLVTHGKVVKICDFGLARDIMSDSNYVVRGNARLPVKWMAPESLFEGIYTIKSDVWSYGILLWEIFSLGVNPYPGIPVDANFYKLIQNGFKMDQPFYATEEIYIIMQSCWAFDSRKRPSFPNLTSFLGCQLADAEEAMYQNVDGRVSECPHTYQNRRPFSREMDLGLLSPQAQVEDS

What was measured:
FLT-3 = FLT-3 (Homo sapiens, UniProt P36888, INS600HVDFREYEYD); assay: Cellular assay of target protein degradation (MV-4-11 cells, westernblot); format: cell-based; settings: read-out: DC50 [cell line]; Table 3; MV4-11, FLT-3 degradation, 24 hours
[1] = Pharmacokinetic profile in mice; settings: dosed intravenously or intraperitoneally
MV4-11 cells = assay: Apoptosis induction shown by cleaved caspase-3 (westernblot)
[2] = test system: FLT-3 and pSTAT5 in MV4-11 xenograft tumours; assay: In vivo MV4-11 xenograft model, tumour westernblot; settings: once a day at 30 or 100 mg/kg for 3 days
kinases = assay: In vitro kinase binding, KINOMEscan platform (DiscoverRx); settings: 1 μM, competition assay

DC50 (FLT-3): 5 nM | PK profile: exposure (FIG. 5) [1]: demonstrating exposure in mice
SMILES: Cc1ncsc1-c1ccc(CNC(=O)C2CC(O)CN2C(=O)C(NC(=O)CCOCCOCCOc2ccc3c(c2)sc2nc(-c4ccc(NC(=O)Nc5cc(C(C)(C)C)on5)cc4)cn23)C(C)(C)C)cc1 (stereo not drawn)
Induction of apoptosis (cleaved caspase-3, FIG. 3A/3B) (MV4-11 cells): ability to induce apoptosis | FLT-3 level in xenograft tumours (FIG. 7A/7B) [2]: decrease | pSTAT5 level in xenograft tumours (FIG. 7A/7B) [2]: decrease | Kinase selectivity (KINOMEscan Dendrogram, FIG. 6) (kinases): more selective than Quizartinib
